These are literature values, as cited in patent publication US20240398698A1, “CONAZOLANTIFUNGAL KETOE IN SOLUTION OR SUSPENSION FOR USE IN THE HUMAN EAR” (priority 2023, published 2024).

With `C[C@@H]1C[C@H]2[C@@H]3CCC4=CC(=O)C=C[C@]4(C)[C@@]3(F)[C@@H](O)C[C@]2(C)[C@@]1(O)C(=O)CO` [dexamethasone], the solubility in water result is reported as “practically insoluble”.
